# Reference: PubChem BioAssay AID504808 (Drosophila RNAi Screening Center, 2011)
# Test: 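Fly genes required to hold E2F transcription in check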 (primary screen)
# System: Drosophila S2 cells
# Reagent: long dsRNA against Drosophila genes
# Read-out: 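Dual luciferase plate measurements; E2F-specific signal taken as firefly over Renilla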
# Scale: E2F firefly: higher = more E2F reporter activity; Renilla normaliser: higher = more normaliser reporter signal
# Call rule: 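Called active if the normalised E2F reporter went up by over 50%; the cutoff is arbitrary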
# In all, the deposit lists about 21,000 reagents; shown is an unselected part of those with a known target gene and a result. Of all reagents, 18 (0.084%) are marked active. 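Raw counts without plate normalisation, one of two replicates; the ratio scores behind the calls were not deposited.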 A plus sign joins genes that one reagent is predicted to hit. No sequences are given here. Not stated in the record: the amount of reagent, the time to read-out.
Gene,amplicon,"E2F firefly, rep 1","Renilla normaliser, rep 1",outcome
CG9662,DRSC00723,1.66e5,5665,inactive
CG6870,DRSC02998,1.12e5,4740,inactive
CG32087,DRSC10806,1.21e5,6335,inactive
CG13202,DRSC06326,97941,4246,inactive
CG9395,DRSC03218,1.02e5,4636,inactive
Slu7,DRSC14729,66088,6210,inactive
Ser8,DRSC06891,91731,4310,inactive
garz,DRSC07193,88700,4180,inactive
cue,DRSC08248,91297,3631,inactive
bw,DRSC04005,1.45e5,5211,inactive
bw,DRSC04677,72741,3376,inactive
AkhR,DRSC03329,98494,3743,inactive
CG42269,DRSC10670,90415,3556,inactive
CG42269,DRSC10672,1.05e5,3846,inactive
CG32450,DRSC11546,91045,3832,inactive
HDAC4,DRSC19780,1.33e5,6304,inactive
Inos,DRSC07655,1.49e5,5089,inactive
CG12540,DRSC19471,1.40e5,6189,inactive
CG16863,DRSC01892,1.08e5,4383,inactive
CG10738,DRSC09792,1.38e5,7230,inactive
Dcr-1,DRSC15646,55085,3085,inactive
js,DRSC15004,1.09e5,6316,inactive
CG43345,DRSC03164,81212,3401,inactive
Mtr4,DRSC03560,65351,3159,inactive
Cyp4ae1,DRSC18455,1838,856,inactive
d4,DRSC04881,94844,4003,inactive
Gapdh1,DRSC07433,1.48e5,4829,inactive
CG31287,DRSC13138,76147,2292,inactive
CG8306,DRSC07141,66410,3478,inactive
shrb,DRSC07061,2598,172,inactive
Eglp3,DRSC04293,99242,4357,inactive
CG34315 + Orc3,DRSC07642,2993,191,inactive
ND-SGDH,DRSC11102,1.21e5,6471,inactive
Or47b,DRSC07492,1.00e5,4001,inactive
RYBP,DRSC04117,77139,3546,inactive
scw,DRSC01711,1.36e5,5936,inactive
scw,DRSC21252,1.35e5,6607,inactive
APC7,DRSC17937,7810,744,inactive
CG17944,DRSC12572,1.36e5,6653,inactive
CG32454,DRSC11652,69584,3708,inactive
prod,DRSC07667,83146,3242,inactive
Mob2,DRSC09117,1.12e5,4297,inactive
Mob2,DRSC09119,1.39e5,4742,inactive
Mob2,DRSC09856,60519,3213,inactive
CG34281,DRSC14807,1.12e5,6057,inactive
CG12688 (retired record),DRSC17877,84288,4851,inactive
CG12688 (retired record),DRSC17878,53465,3780,inactive
Lsm10,DRSC06250,1.45e5,5148,inactive
CG11162,DRSC19391,1.17e5,6054,inactive
CG15529,DRSC15066,1.03e5,5858,inactive

No new results follow: 12 of the entries above.
Gene,amplicon,"E2F firefly, rep 1","Renilla normaliser, rep 1",outcome
js,DRSC15004,1.09e5,6316,inactive
CG43345,DRSC03164,81212,3401,inactive
Mtr4,DRSC03560,65351,3159,inactive
Cyp4ae1,DRSC18455,1838,856,inactive
d4,DRSC04881,94844,4003,inactive
Gapdh1,DRSC07433,1.48e5,4829,inactive
CG31287,DRSC13138,76147,2292,inactive
CG8306,DRSC07141,66410,3478,inactive
shrb,DRSC07061,2598,172,inactive
Eglp3,DRSC04293,99242,4357,inactive
CG34315 + Orc3,DRSC07642,2993,191,inactive
ND-SGDH,DRSC11102,1.21e5,6471,inactive

The results go on.
Gene,amplicon,"E2F firefly, rep 1","Renilla normaliser, rep 1",outcome
Hsp70Aa + Hsp70Ab,DRSC21246,1.13e5,6452,inactive
CG32213 + CG12519 + 825-Oak + 1 more,DRSC09615,79098,3575,inactive
CG2104,DRSC12304,1.32e5,6410,inactive
cort,DRSC02148,49469,3087,inactive
Su(z)2,DRSC07558,82605,4246,inactive
CG31233,DRSC15888,1.29e5,7185,inactive
CG12645,DRSC17851,1.36e5,6453,inactive
Ldh,DRSC11198,1.01e5,4293,inactive
cyc,DRSC11337,1.42e5,7924,inactive
CG15255,DRSC01869,1.02e5,4893,inactive
Alg14,DRSC19983,1.50e5,6220,inactive
Ide,DRSC11867,70633,3386,inactive
AANATL2,DRSC03227,1.63e5,5351,inactive
CG11811,DRSC09862,1.24e5,6739,inactive
Wdr82,DRSC02595,90129,3328,inactive
CG7408,DRSC10841,1.72e5,9007,inactive
CG32189,DRSC09511,1.45e5,3497,inactive
CG14624,DRSC18634,50399,3215,inactive
MED8,DRSC06426,1.44e5,5058,inactive
TTLL3A,DRSC02143,1.67e5,5223,inactive
CG34155,DRSC13991,80048,2494,inactive
EMC10,DRSC11850,1.34e5,7048,inactive
Josd,DRSC18323,1.05e5,4918,inactive
Tet,DRSC08550,81987,3595,inactive
CG14401,DRSC02385,1.05e5,4158,inactive
CG14826,DRSC10197,1.01e5,4200,inactive
CG43367,DRSC08299,1.01e5,4523,inactive
CG43367,DRSC08301,97190,4882,inactive
CG43367,DRSC08309,92377,3719,inactive
Lis-1,DRSC07459,1.58e5,5887,inactive
CG10477,DRSC09732,74649,2991,inactive
CR11386 + CR33222,DRSC17781,97788,5336,inactive
Stat92E,DRSC16870,59782,2921,inactive
CG17344,DRSC02607,87005,3929,inactive
